Measurements: PubChem BioAssay AID624297 (National Center for Advancing Translational Sciences (NCATS), 2012)
Among all 340,000 compounds or so, about 6,200 (1.8%) were called active. Inconclusive results, whose numbers are uncertain, are shown with a selection of clear calls. Calls come from the whole dose curve; as a rule, active = well fitted activation curve with a large enough effect; inconclusive = small, poorly fitted or top-dose-only effect; inactive = no such curve, though single readings can be large or run the other way. Potencies beside an inconclusive call are fits to weak or partial responses and may not hold up.

assay: A quantitative high throughput screen for small molecules that induce DNA re-replication in SW480 colon adenocarcinoma cells.; note: nearly all actives have a fitted effect of over 55% in size; for re-replication activation: % of control where 0% means no effect; conditions: Hoechst DNA content imaging, 48 h; re-replication activation: at 46.1 µM (top of the series)
Method in brief: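 Treated cells incubate 48 hr (37 C, 5% CO2), are stained 40 min with Hoechst, and nuclear fluorescence is enumerated; a rise in nuclei with high DNA signal marks re-replication.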
Potency is the fitted concentration of half-maximal effect.

With COC(=O)[C@@]1(Cc2ccc(F)cc2)[C@H]2c3cc(C(=O)N(C)C)n(Cc4ccc(OC)c(OC)c4)c3C[C@H]2CN1C(=O)c1ccccc1 as the compound, how does the Potency read?
Its Potency is inconclusive: 32.6 µM [activator, single point].

For CC(C)(C)NC(=O)NC(=O)CSc1nncs1, which “re-replication activation” value is on record?
The value was inactive: -71%.

Which “re-replication activation” value does the source give for Cc1ccc(S(=O)(=O)N2CCN(Cc3cc(=O)n4ccccc4n3)CC2)cc1C here?
Its value is inactive: -0.555%.

Which Potency does the source give for COc1ccc([C@H]2CC(=O)C=C(c3cc(OC)ccc3OC)C2)cc1 here?
The Potency was inconclusive: 20.6 µM [activator, single point].

With CCOc1ccc(OCC)c(NC(=O)C2CCN(S(=O)(=O)c3c(C)[nH]c(=O)[nH]c3=O)CC2)c1 as the compound, how does the Potency read?
Its Potency is inconclusive: 20.6 µM [activator, partial curve, poor fit].

For Cc1ccc(NC(=O)COC(=O)c2cccc3c2C(=O)c2ccccc2C3=O)c(C)c1, which Potency is on record?
Its Potency is inconclusive: 20.6 µM [activator, single point].

For COc1ccc2c(c1OC)C(=O)OC2Nc1nc(-c2cc3cc([N+](=O)[O-])ccc3oc2=O)cs1 (centres undefined), which Potency is on record?
Its Potency is inconclusive: 0.058 µM [activator, full curve, poor fit].

Which Potency does the source give for COc1ccc([C@@]23Oc4cc(OC)cc(OC)c4[C@]2(O)[C@H](O)[C@H](C(=O)N(C)C)[C@H]3c2ccccc2)cc1 here?
The Potency was inconclusive: 3.66 µM [activator, partial curve, poor fit].

Which Potency does the source give for Cc1cccc(Cc2c(C)nc3c(C(=O)NCc4ccco4)cnn3c2C)c1 here?
Its Potency is inconclusive: 6.51 µM [activator, single point].

With CCSC1=C(C#N)C(c2ccc(F)cc2)CC(=O)N1 (centres undefined) as the compound, how does the Potency read?
The Potency was inconclusive: 0.82 µM [activator, full curve, poor fit].

For O=C(CCCCCn1c(=S)[nH]c2ccc(N3CCOCC3)cc2c1=O)NCc1ccccc1, which “re-replication activation” value is on record?
The value was inactive: -2.54%.

With CC1CCCCC1NC(=O)COc1ccccc1C#N (centres undefined) as the compound, how does the Potency read?
The Potency was inconclusive: 6.51 µM [activator, single point].

With CCOc1ccccc1C(=O)Nc1ccc(C(=O)c2ccccc2)cc1 as the compound, how does the Potency read?
The Potency was inconclusive: 20.6 µM [activator, partial curve, poor fit].

Which Potency does the source give for CCN1CCN(Cc2nc3ccc([N+](=O)[O-])cc3c(=O)n2-c2ccc(OC)cc2OC)CC1 here?
The Potency was inconclusive: 12.6 µM [activator, single point].

Which Potency does the source give for COc1ccc(-c2cc(C(F)(F)F)nc(S(=O)(=O)CCC(=O)N3CCOCC3)n2)cc1 here?
Its Potency is inconclusive: 29.1 µM [activator, single point].

With COc1cccc(CN2CCNC(=O)C2CC(=O)NC2CCCC2)c1OC (centres undefined) as the compound, how does the Potency read?
The Potency was inconclusive: 29.1 µM [activator, partial curve, poor fit].

Which “re-replication activation” value does the source give for COc1ccc2[nH]c3c(NCc4ccco4)ncnc3c2c1 here?
The value was inactive: 19.5%.

Which Potency does the source give for Cc1nc(C(=O)NCC(=O)c2ccccc2)c(C(F)(F)F)o1 here?
The Potency was inconclusive: 2.59 µM [activator, single point].

For N#CCCn1cc(/C=N/O)c(-c2ccc(-c3ccccc3)cc2)n1, which Potency is on record?
The Potency was inconclusive: 20.6 µM [activator, single point].

Which “re-replication activation” value does the source give for Cc1ccc(-c2noc(CCC(=O)Nc3ccccc3C)n2)cc1 here?
The value was inactive: -0.667%.

With CCOC(=O)c1sc(Nc2nc3c(OC)cccc3s2)cc1C as the compound, how does the Potency read?
The Potency was inconclusive: 25.9 µM [activator, single point].

For COc1ccc(CN(CCC(c2ccc(F)cc2)C2CCOC(C)(C)C2)C(=O)c2ccco2)cc1 (centres undefined), which Potency is on record?
Its Potency is “inactive”.

With O=C(/C=C/c1ccccc1)Nn1c(-c2cccs2)nc2ccccc2c1=O as the compound, how does the Potency read?
The Potency was inconclusive: 16.4 µM [activator, single point].

For CCN(CCn1cccn1)C(=O)C1CCC(=O)N(CC2CCCCC2)C1 (centres undefined), which Potency is on record?
The Potency was inconclusive: 0.13 µM [activator, full curve, poor fit].

For Cc1cc(Cl)c(OCCCNC2CCCC2)c(Br)c1, which Potency is on record?
The Potency was inconclusive: 20.6 µM [activator, single point].

Which “re-replication activation” value does the source give for Cc1ccc(C)c(Cn2c(C)nc3c(sc(=S)n3-c3ccccc3)c2=O)c1 here?
Its value is inactive: 0.0115%.

With Cc1cccc(C(=O)Nc2ccccc2SCC(=O)Nc2ccc(C)c(Cl)c2)c1 as the compound, how does the Potency read?
Its Potency is inconclusive: 1.64 µM [activator, single point].

Which Potency does the source give for O=C(c1ccc(-n2cccn2)cc1)N1CCc2c([nH]c3ccccc23)C1c1ccccn1 (centres undefined) here?
Its Potency is inconclusive: 0.0731 µM [activator, full curve, poor fit].

Which Potency does the source give for CC(C)CSc1nc(N)nc2c1ncn2C1OC(CO)C(O)C1O (centres undefined) here?
Its Potency is inconclusive: 0.0046 µM [activator, full curve, poor fit].

Which Potency does the source give for CCC(=O)N1CCc2cc(S(=O)(=O)N3CCN(c4cc(Cl)ccc4C)CC3)ccc21 here?
Its Potency is inconclusive: 6.51 µM [activator, single point].

For c1ccc(-c2nnc3sc(-c4csc5c4CCCC5)nn23)cc1, which Potency is on record?
The Potency was inconclusive: 29.1 µM [activator, partial curve, poor fit].

With COc1cccc(CNC(=O)C2CCCN(S(=O)(=O)c3cccc4nonc34)C2)c1 (centres undefined) as the compound, how does the Potency read?
Its Potency is inconclusive: 20.6 µM [activator, partial curve, poor fit].

Which Potency does the source give for CC(C)(C)OC(=O)C[C@H]1C/C=C\C[C@H](CC(=O)N[C@H](CO)Cc2ccccc2)C(=O)N[C@H](Cc2ccccc2)COC1=O here?
Its Potency is inconclusive: 10.3 µM [activator, partial curve, poor fit].

For Cc1ccc2sc(N(CCCN(C)C)C(=O)c3ccc(S(=O)(=O)N(C)C4CCCCC4)cc3)nc2c1C, which Potency is on record?
Its Potency is inconclusive: 18.4 µM [activator, single point].

Which “re-replication activation” value does the source give for COc1ccc(CCNC(=O)c2c(C)nc3ccccn23)cc1 here?
Its value is inactive: -0.0692%.

Which Potency does the source give for CN=C1c2cc3cc(OC)ccc3n2CCN1Cc1ccccc1 here?
The Potency was active: 11.2 µM.

With COCCOC(=O)C1=C(C)NC(=O)NC1/C=C/c1ccccc1 (centres undefined) as the compound, how does the “re-replication activation” value read?
Its value is inactive: -0.916%.

With O=[N+]([O-])c1cc(-c2csc(NCCc3nc4cc(Cl)c(N5CCCCC5)cc4n3CCCO)n2)ccc1Cl as the compound, how does the Potency read?
Its Potency is inconclusive: 0.13 µM [activator, full curve, poor fit].

Which Potency does the source give for COc1ccc(Cc2noc(-c3ccc(OC)c(OC)c3)n2)cc1OC here?
Its Potency is inconclusive: 29.1 µM [activator, partial curve, poor fit].

With COc1ccc2nc(Cl)c(/C=N/Nc3ccccn3)cc2c1 as the compound, how does the Potency read?
Its Potency is inconclusive: 32.6 µM [activator, partial curve, poor fit].

For O=C(/C=C/c1ccccc1)NC(=S)Nc1ccc(CN2CCOCC2)cc1, which Potency is on record?
Its Potency is inconclusive: 23.1 µM [activator, single point].

With COc1ccc(-c2cc(-c3nnc(COC(=O)CC4CC5CCC4C5)o3)c3ccccc3n2)cc1OC (centres undefined) as the compound, how does the Potency read?
The Potency was active: 2.59 µM.

With COc1ccc(OC)c(NC(=O)CCN2C(=O)c3ccccc3C2=O)c1 as the compound, how does the re-replication activation read?
Its re-replication activation is inconclusive: 39.9% [activator].

For COc1cccc(C(=O)N=c2sc3cc(S(C)(=O)=O)ccc3n2C)c1, which Potency is on record?
The Potency was active: 6.51 µM.

With Oc1c(C(c2ccccc2)N2CCOCC2)ccc2ccccc12 (centres undefined) as the compound, how does the Potency read?
The Potency was inconclusive: 29.1 µM [activator, single point].

With N/C(=N\c1nc2c(c(=O)[nH]1)CCC2)Nc1cccc(Cl)c1 as the compound, how does the Potency read?
Its Potency is inconclusive: 20.6 µM [activator, single point].

Which “re-replication activation” value does the source give for CC(=O)Nc1ccc2c(c1)OCCO2 here?
Its value is inactive: -4.34%.

Which “re-replication activation” value does the source give for O=C(CSc1ncn[nH]1)Nc1ccc2c(c1)CCC2 here?
The value was inactive: 0.608%.

Which Potency does the source give for CCn1c(Cl)c(C=O)s/c1=N\S(=O)(=O)c1ccccc1 here?
Its Potency is active: 14.6 µM.

Which “re-replication activation” value does the source give for COc1cccc(/C=N/n2c(-c3cc(C)[nH]n3)n[nH]c2=S)c1OC here?
The value was inactive: -4.04%.

With COc1cc(OC)cc(C(=O)N[C@H](C(=O)Nc2nc3ccccc3[nH]2)C(C)C)c1 as the compound, how does the Potency read?
Its Potency is active: 0.164 µM.

Which Potency does the source give for O=C(Nc1c(Cl)cc2c(c1Cl)Cc1cc([N+](=O)[O-])ccc1-2)C(Cl)Cl here?
Its Potency is inconclusive: 11.6 µM [activator, partial curve].

For C[C@@H]1CN(CCCn2c3ccccc3c3ccccc32)C[C@H](C)N1, which Potency is on record?
Its Potency is inconclusive: 21.1 µM [activator, partial curve].

Which Potency does the source give for COc1ccc2nc(Nc3nc(C)c(C(C)=O)s3)sc2c1 here?
Its Potency is active: 16.4 µM.

Which Potency does the source give for CN(c1cccc(Cl)c1)S(=O)(=O)c1cccc(C(=O)NC2=NCCS2)c1 here?
The Potency was inconclusive: 31.6 µM [activator, single point].

Which re-replication activation does the source give for COc1ccc(NC(=O)CN2CCN(S(=O)(=O)N(C)C)CC2)cc1 here?
The re-replication activation was inconclusive: -27.1% [activator].

Which Potency does the source give for N#CC1C(C#N)N2CCCN2C1c1ccc(Cl)cc1 (centres undefined) here?
The Potency was inconclusive: 23.1 µM [activator, single point].

For COc1ccc(NC(=O)C2C3CCC(O3)C2C(=O)O)cc1OC (centres undefined), which Potency is on record?
Its Potency is inconclusive: 29.1 µM [activator, single point].

Which Potency does the source give for Cn1cccc1Cc1nnc(SCC(=O)N2CCCC2)n1CCc1ccccc1 here?
Its Potency is inconclusive: 0.731 µM [activator, full curve, poor fit].

Which Potency does the source give for CCOc1cc2[nH]c(=O)n(Cc3ccc(C(=O)NCCCN4CCC(C)CC4)cc3)c(=O)c2cc1OCC here?
The Potency was inconclusive: 18.4 µM [activator, single point].

For Cc1cccc(-n2ccc(=O)c(C(=O)Nc3ccc(S(=O)(=O)Nc4onc(C)c4C)cc3)n2)c1, which Potency is on record?
The Potency was inconclusive: 7.94 µM [activator, partial curve, poor fit].

For Cc1cc(C)c(C(=O)NC2CC(C)(C)Cc3c2cnn3-c2cccc(F)c2)[nH]1 (centres undefined), which Potency is on record?
Its Potency is inconclusive: 29.1 µM [activator, partial curve, poor fit].

With CC(=O)NC(c1ccccc1)c1c(O)ccc2ccccc12 (centres undefined) as the compound, how does the “re-replication activation” value read?
Its value is inactive: 5.88%.

With COc1ccc(C(=O)NCCS(=O)(=O)NCc2cccnc2)cc1 as the compound, how does the Potency read?
The Potency was inconclusive: 23.1 µM [activator, single point].
